Reference: patent US8865206B1, “Surface modified multilayered nanostructures for dermal delivery” (Florida A&M University, priority 2010, dated 2014)
For at least one compound, name, drawing or mass did not settle the structure.

Tested on: DNFB-induced ACD model
Assay: In vivo model for allergic contact dermatitis (ACD), DNFB-induced ear swelling
Set-up: species or system C57BL/6 mice
Details: positive control, 0.5 mM solution in ethanol and PEG-400

C[C@@H]1C[C@H]2[C@@H]3CCC4=CC(=O)C=C[C@]4(C)[C@@]3(F)[C@@H](O)C[C@]2(C)[C@@]1(O)C(=O)CO [dexamethasone]
ear thickness before and after application: no statistical difference
